Experimental data published in article PMC5003356.
For at least one entry, the source does not settle the construct or the ends of the probe. Where cells or extracts were used, other partners may take part. For some of these results: Weaker means in comparison with the reference protein, sequence or condition of that experiment. For some of these results: Protein sequences can lack the tags named with them. For some of these results: The direction of at least one scale is not stated here.

Sequences of proteins named here, by UniProt entry; tags and fusion partners are left off. A change or cut given only in a name is not applied to a line headed by its entry. Residues count along the entry.
UniProt P09405, 300-652: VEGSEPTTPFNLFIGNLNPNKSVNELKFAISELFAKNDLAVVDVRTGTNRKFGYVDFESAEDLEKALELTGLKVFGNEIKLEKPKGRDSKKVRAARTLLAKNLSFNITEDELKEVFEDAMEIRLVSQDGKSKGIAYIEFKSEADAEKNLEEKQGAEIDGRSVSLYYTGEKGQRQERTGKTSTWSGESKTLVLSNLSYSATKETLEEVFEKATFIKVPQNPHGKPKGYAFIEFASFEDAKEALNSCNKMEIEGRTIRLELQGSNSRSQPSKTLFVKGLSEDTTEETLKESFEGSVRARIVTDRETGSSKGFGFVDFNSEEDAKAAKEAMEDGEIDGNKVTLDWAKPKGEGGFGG
UniProt Q15233: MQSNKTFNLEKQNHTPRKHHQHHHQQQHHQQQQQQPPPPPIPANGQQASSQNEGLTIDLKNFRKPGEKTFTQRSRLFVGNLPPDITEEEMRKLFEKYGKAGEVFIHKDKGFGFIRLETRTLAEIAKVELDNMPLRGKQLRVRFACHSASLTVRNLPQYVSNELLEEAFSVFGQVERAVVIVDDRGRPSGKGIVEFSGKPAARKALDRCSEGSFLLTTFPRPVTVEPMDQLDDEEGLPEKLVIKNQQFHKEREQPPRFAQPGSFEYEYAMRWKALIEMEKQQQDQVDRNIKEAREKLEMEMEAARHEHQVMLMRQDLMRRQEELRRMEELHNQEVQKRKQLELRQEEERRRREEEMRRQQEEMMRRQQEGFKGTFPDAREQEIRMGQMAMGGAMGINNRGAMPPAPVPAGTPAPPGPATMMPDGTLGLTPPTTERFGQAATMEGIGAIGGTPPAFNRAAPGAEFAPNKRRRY
UniProt P05627, whole entry: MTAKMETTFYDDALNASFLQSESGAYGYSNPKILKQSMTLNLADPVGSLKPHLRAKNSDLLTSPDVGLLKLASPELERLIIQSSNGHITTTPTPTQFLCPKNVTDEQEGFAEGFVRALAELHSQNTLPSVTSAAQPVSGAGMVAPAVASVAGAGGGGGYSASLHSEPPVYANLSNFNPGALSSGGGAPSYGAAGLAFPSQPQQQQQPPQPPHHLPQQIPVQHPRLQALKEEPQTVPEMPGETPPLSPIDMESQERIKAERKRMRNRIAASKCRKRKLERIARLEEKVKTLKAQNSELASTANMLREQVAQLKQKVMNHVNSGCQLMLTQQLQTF

Experiments:
[1] = molecular target: LRPPRC-NLuc (UniProt P42704); assay: competition BRET; conditions: 3-10-3 cEt gap-mer; BRET: 1X binding buffer (0.1 M potassium acetate, 20 mM Tris pH 7.5, 1 mM EDTA, 0.01% NP-40), room temperature, 15 min; protein in a lysate after overexpression; protein details: C-terminal NLuc; synthetic backbone
[2] = molecular target: NCL (RBD 1-4) NLuc fusion (UniProt P09405); assay: competition BRET; conditions: 3-10-3 cEt gap-mer; BRET: 1X binding buffer (0.1 M potassium acetate, 20 mM Tris pH 7.5, 1 mM EDTA, 0.01% NP-40), room temperature, 15 min; protein in a lysate after overexpression; protein details: NLuc (N or C); synthetic backbone
[3] = molecular target: P54nrb NLuc fusion (Homo sapiens) (UniProt Q15233); assay: competition BRET; conditions: 3-10-3 cEt gap-mer; BRET: 1X binding buffer (0.1 M potassium acetate, 20 mM Tris pH 7.5, 1 mM EDTA, 0.01% NP-40), room temperature, 15 min; protein in a lysate after overexpression; protein details: NLuc (N or C); synthetic backbone
[4] = molecular target: T1, RNase H1 NLuc fusion (UniProt O60930); assay: competition BRET; conditions: 3-10-3 cEt gap-mer; BRET: 1X binding buffer (0.1 M potassium acetate, 20 mM Tris pH 7.5, 1 mM EDTA, 0.01% NP-40), room temperature, 15 min; protein in a lysate after overexpression; protein details: NLuc (N or C); synthetic backbone
T1 sequence (looked up, limits assumed): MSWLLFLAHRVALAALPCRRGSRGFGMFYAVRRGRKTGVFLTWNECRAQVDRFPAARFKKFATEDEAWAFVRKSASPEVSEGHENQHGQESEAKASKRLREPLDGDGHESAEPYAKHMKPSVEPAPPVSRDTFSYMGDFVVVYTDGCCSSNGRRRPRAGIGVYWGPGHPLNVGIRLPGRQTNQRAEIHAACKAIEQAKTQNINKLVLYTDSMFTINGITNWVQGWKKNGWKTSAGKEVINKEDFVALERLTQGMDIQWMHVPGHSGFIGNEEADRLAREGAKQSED

[5] = molecular target: NLuc-cJun (UniProt P05627); assay: BRET; conditions: digitonin-permeabilized HeLa, BRET: 1X binding buffer (0.1 M potassium acetate, 20 mM Tris pH 7.5, 1 mM EDTA, 0.01% NP-40), room temperature, 15 min, protein in a lysate after overexpression, protein details: N-terminal NLuc, label: 3' Alexa Fluor 594 on strand 1
[6] = molecular target: T2, Staufen1 NLuc fusion (UniProt O95793); assay: BRET; conditions: range over ssRNA, ssDNA and RNA/DNA; BRET: 1X binding buffer (0.1 M potassium acetate, 20 mM Tris pH 7.5, 1 mM EDTA, 0.01% NP-40), room temperature, 15 min; protein in a lysate after overexpression; label: 3' Alexa Fluor 594
T2 sequence (looked up, limits assumed): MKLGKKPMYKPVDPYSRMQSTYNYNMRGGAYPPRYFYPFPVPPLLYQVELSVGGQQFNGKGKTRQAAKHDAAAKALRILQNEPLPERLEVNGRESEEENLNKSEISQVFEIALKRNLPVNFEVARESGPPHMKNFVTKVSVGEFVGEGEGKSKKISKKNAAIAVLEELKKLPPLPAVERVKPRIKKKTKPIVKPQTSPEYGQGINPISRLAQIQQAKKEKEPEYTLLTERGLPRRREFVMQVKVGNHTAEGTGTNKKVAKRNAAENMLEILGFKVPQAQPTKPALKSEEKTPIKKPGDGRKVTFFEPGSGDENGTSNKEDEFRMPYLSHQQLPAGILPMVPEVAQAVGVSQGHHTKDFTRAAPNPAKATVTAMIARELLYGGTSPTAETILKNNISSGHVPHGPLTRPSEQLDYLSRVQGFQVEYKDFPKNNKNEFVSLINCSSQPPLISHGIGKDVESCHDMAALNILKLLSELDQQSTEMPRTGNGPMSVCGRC

Row | Sequence | Kd [1] | Kd [2] | Kd [3] | Kd [4] | binding result ([5]; Discussion says ~80 nM) | binding signal (fold lower affinity than ds AP1) ([5]; 'virtually no binding') | binding result [6]
1 | AACATGTCTGCCAGGG [660956] | 0.42 nM | 2.35 nM | 0.71 nM | 10.5 nM | – | – | –
2 | CGCTTGATGAGTCAGCCGGAA (double strand) [AP1 ds] | – | – | – | – | binds | – | –
3 | CCAGCGGGTGGACTGT [660923] | 0.27 nM | 7.37 nM | 1.22 nM | 7.11 nM | – | – | –
4 | TCCACAGAGCGGACTG [660965] | 1.2 nM | 28.2 nM | 191 nM | 189 nM | – | – | –
5 | CTGGGAACTGGTCACC [660899] | 0.29 nM | 3.95 nM | 15.4 nM | 52.9 nM | – | – | –
6 | CGCTTGATGACTTGGCCGGAA (double strand) [AP1-M ds] | – | – | – | – | – | 100 | –
7 | GTTAAGAAGGCTGTCC [661073] | 0.16 nM | 13.4 nM | 95.5 nM | 149 nM | – | – | –
8 | GGGAGGAGGACAGCTC [660908] | 0.3 nM | 1.64 nM | 0.51 nM | 1.63 nM | – | – | –
9 | CCCTCCCTCCCGCTAG [661121] | 0.22 nM | 0.82 nM | 3.39 nM | 20.4 nM | – | – | –
10 | CUGCUAGCCUCUGGAUUUGA [STAU1 ssRNA] | – | – | – | – | – | – | binds more weakly
